Experimental data reported in paper doi:10.1101/2021.10.01.462762 (bioRxiv, 2021).
No constants are given. Whether binding was seen depends on the method and setting. Some results given as binding are weak or reduced against the parent protein; the word gives no strength.

Amino acid sequences for entries named in this document (tags omitted). A change or cut given only in a name is not applied to a line headed by its entry.
UniProt P21514, whole entry, looked up, stated change not applied: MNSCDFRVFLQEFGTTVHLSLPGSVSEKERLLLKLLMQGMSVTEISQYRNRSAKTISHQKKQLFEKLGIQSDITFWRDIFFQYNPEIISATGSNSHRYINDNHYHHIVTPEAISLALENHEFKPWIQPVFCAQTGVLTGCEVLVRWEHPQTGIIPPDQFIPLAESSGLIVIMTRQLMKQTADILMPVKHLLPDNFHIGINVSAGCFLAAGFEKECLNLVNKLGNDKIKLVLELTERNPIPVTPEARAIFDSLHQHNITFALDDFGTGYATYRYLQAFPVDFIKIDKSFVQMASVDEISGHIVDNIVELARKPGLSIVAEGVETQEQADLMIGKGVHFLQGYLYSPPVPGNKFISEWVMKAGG

Target: PdeL EAL domain Y268C (PdeLEAL-3xFlag-StrepII) (E. coli) (UniProt P21514)
Assay: cross-linking

## PdeL EAL domain Y268C (PdeLEAL-3xFlag-StrepII) (from UniProt P21514 101-362) (domain or fragment)
  binding: binds
